Assay results published in patent US10064928B2, “Peptides and combination of peptides for use in immunotherapy against CLL and other cancers” (IMMATICS BIOTECHNOLOGIES GMBH, priority 2015, dated 2018).

Experiments:
[1] = tested on: other tumor types (e.g. non-Hodgkin lymphoma, lung cancer); assay: Presentation of the peptides on additional tumor types (LC-MS, Tables 4A/4B, FIG. 1); parameters: species or system human; settings: for Other relevant organs/diseases: Table 4A: additional tumor types where the peptide was over-presented on more than 5% of the measured tumor samples, or presented on more than 5% with ratio of geometric means tumor vs normal tissues larger than 3; for Additional Entities: Table 4B: additional tumour types with over-presentation (including specific presentation) on more than 5% of the measured tumour samples, or presentation on more than 5% with ratio of geometric means tumour vs normal tissues larger than 3, extended normal tissue panel
[2] = tested on: CLL samples compared to a panel of normal tissues; assay: Identification and label-free relative LC-MS quantitation of HLA-presented peptides (presentation profiles and scores); parameters: species or system human; key: very highly over-presented on tumors compared to a panel of normal tissues (+++); highly over-presented on tumors compared to a panel of normal tissues (++); over-presented on tumors compared to a panel of normal tissues (+); settings: presentation score; over-presentation on tumors (CLL samples) compared to a panel of normal tissues

Substance | Other relevant organs/diseases [1] | Peptide Presentation [2] | other results
1 (AIPPSFASIFL; listed as Homo sapiens) [compound 1] | NHL | +++ | 
2 (ALHRPDVYL; listed as Homo sapiens) [compound 2] | NHL | +++ | 
3 (VIAELPPKV; listed as Homo sapiens) [compound 3] | NHL | +++ | 
4 (VIAELPPKVSV; listed as Homo sapiens) [compound 4] |  | +++ | 
6 (ALDTLEDDMTI; listed as Homo sapiens) [compound 6] |  | +++ | 
7 (ALLERTGYTL; listed as Homo sapiens) [compound 7] | HCC, NHL | +++ | Additional Entities [1]: Uterine Cancer, AML
8 (ALAASALPALV; listed as Homo sapiens) [compound 8] |  | +++ | Additional Entities [1]: AML, HNSCC
9 (ALCDTLITV; listed as Homo sapiens) [compound 9] | NHL | +++ | 
10 (FVYGESVEL; listed as Homo sapiens) [compound 10] | NHL | +++ | 
11 (ALFTFSPLTV; listed as Homo sapiens) [compound 11] |  | +++ | Additional Entities [1]: AML, HNSCC, NHL, NSCLC, OC, SCLC
12 (ALGEDEITL; listed as Homo sapiens) [compound 12] | NHL, AML, Melanoma | +++ | 
13 (VVDGMPPGV; listed as Homo sapiens) [compound 13] | NHL | ++ | Additional Entities [1]: BRCA, Uterine Cancer
14 (ALLRLLPGL; listed as Homo sapiens) [compound 14] | NHL, AML | + | Additional Entities [1]: BRCA, Melanoma, HNSCC
15 (ALPEVSVEA; listed as Homo sapiens) [compound 15] | NHL, AML, Melanoma | + | Additional Entities [1]: Esophageal Cancer
16 (ALPGGAAVAAV; listed as Homo sapiens) [compound 16] |  | ++ | 
17 (ALTKTNLQL; listed as Homo sapiens) [compound 17] |  | +++ | 
18 (LLGEFSIKM; listed as Homo sapiens) [compound 18] |  | +++ | 
19 (QVMEKLAAV; listed as Homo sapiens) [compound 19] | NHL | + | 
20 (ALVDPGPDFVV; listed as Homo sapiens) [compound 20] | NHL | + | 
21 (ALWAGLLTL; listed as Homo sapiens) [compound 21] | NHL | +++ | 
22 (ALWDPVIEL; listed as Homo sapiens) [compound 22] | NHL | +++ | 
23 (ALYLTEVFL; listed as Homo sapiens) [compound 23] |  | +++ | 
24 (AMAGDVVYA; listed as Homo sapiens) [compound 24] | NHL | +++ | 

Substance | Other relevant organs/diseases [1] | Peptide Presentation [2] | other results
25 (ATYSGLESQSV; listed as Homo sapiens) [compound 25] | Melanoma | + | Additional Entities [1]: AML
27 (AVLGLVWLL; listed as Homo sapiens) [compound 27] | NSCLC, NHL, Uterine Cancer | ++ | Additional Entities [1]: HNSCC
28 (AVLHLLLSV; listed as Homo sapiens) [compound 28] | NHL, BRCA | +++ | 
29 (AVLQAVTAV; listed as Homo sapiens) [compound 29] | SCLC, NHL, AML, Melanoma, OC, Gallbladder Cancer, Bile Duct Cancer | +++ | Additional Entities [1]: Uterine Cancer
30 (ELLEGSEIYL; listed as Homo sapiens) [compound 30] | NHL | + | Additional Entities [1]: CRC, BRCA, Melanoma, Uterine Cancer
32 (FIDKFTPPV; listed as Homo sapiens) [compound 32] | NHL | +++ | 
33 (FIINSSNIFL; listed as Homo sapiens) [compound 33] | NHL | +++ | 
35 (FILPSSLYL; listed as Homo sapiens) [compound 35] | RCC, NHL, AML, Gallbladder Cancer, Bile Duct Cancer | +++ | Additional Entities [1]: SCLC, Uterine Cancer
36 (FILTHVDQL; listed as Homo sapiens) [compound 36] |  | +++ | 
37 (FIMEGGAMVL; listed as Homo sapiens) [compound 37] | AML | +++ | Additional Entities [1]: NHL
39 (FLDALLTDV; listed as Homo sapiens) [compound 39] | SCLC, NHL, AML, Melanoma | +++ | 
40 (FLDEDDMSL; listed as Homo sapiens) [compound 40] | SCLC, NHL, Urinary bladder cancer | + | Additional Entities [1]: HNSCC
41 (FLDPSLDPLL; listed as Homo sapiens) [compound 41] |  | +++ | Additional Entities [1]: Uterine Cancer
47 (FLSDQPEPYL; listed as Homo sapiens) [compound 47] |  | ++ | 
50 (FLFEPVVKAFL; listed as Homo sapiens) [compound 50] |  | +++ | 
53 (FLWQHVELVL; listed as Homo sapiens) [compound 53] |  | +++ | 
54 (FLYPFPLALF; listed as Homo sapiens) [compound 54] |  | +++ | 
61 (FVYFIVREV; listed as Homo sapiens) [compound 61] |  | +++ | 
65 (GLDDMKANL; listed as Homo sapiens) [compound 65] |  | +++ | 
73 (GLLEVISALQL; listed as Homo sapiens) [compound 73] |  | +++ | 
77 (GLLRLTWFL; listed as Homo sapiens) [compound 77] |  | ++ | 
95 (ILGYMAHEHKV; listed as Homo sapiens) [compound 95] |  | +++ | 
104 (KLILLDTPLFL; listed as Homo sapiens) [compound 104] |  | +++ | 

Substance | Other relevant organs/diseases [1] | Peptide Presentation [2] | other results
123 (LLLAEAELLTL; listed as Homo sapiens) [compound 123] |  | +++ | 
129 (LLVGTLDVV; listed as Homo sapiens) [compound 129] |  | + | 
131 (LQALEVLKI; listed as Homo sapiens) [compound 131] |  | +++ | 
132 (LVYEAIIMV; listed as Homo sapiens) [compound 132] |  | +++ | 
134 (MLLEHGITLV; listed as Homo sapiens) [compound 134] |  | +++ | 
135 (MTAGFSTIAGSV; listed as Homo sapiens) [compound 135] |  | +++ | 
140 (QIAELPATSV; listed as Homo sapiens) [compound 140] |  | +++ | 
142 (QLDEPAPQV; listed as Homo sapiens) [compound 142] |  | +++ | 
144 (QLPPFPREL; listed as Homo sapiens) [compound 144] |  | +++ | 
171 (TLVPPAALISI; listed as Homo sapiens) [compound 171] |  | +++ | 
182 (VLLSVPGPPV; listed as Homo sapiens) [compound 182] |  | +++ | 
206 (HMQDVRVLL; listed as Homo sapiens) [compound 206] |  | +++ | 
259 (RLLDEQFAVL; listed as Homo sapiens) [compound 259] |  | + | 
270 (TVLPVPPLSV; listed as Homo sapiens) [compound 270] |  | +++ | 
277 (VMILKLPFL; listed as Homo sapiens) [compound 277] |  | + | 
287 (FLWEEKFNSL; listed as Homo sapiens) [compound 287] |  | +++ | 
302 (ILQDLTFVHL; listed as Homo sapiens) [compound 302] |  | + | 
318 (NLQVTQPTV; listed as Homo sapiens) [compound 318] |  | +++ | 
331 (VLWELAHLPTL; listed as Homo sapiens) [compound 331] |  | +++ | 
345 (YLIEPDVELQRI; listed as Homo sapiens) [compound 345] |  | + | 
356 (FLHDHQAEL; listed as Homo sapiens) [compound 356] |  | + | 
372 (SLFGPLPGPGPALV; listed as Homo sapiens) [compound 372] |  | + | 
SEQ ID NO.: 3 (VIAELPPKV; listed as Homo sapiens) |  |  | additionally detected on lung cancers ([1]; positive/measured samples): 1/90; additionally detected on non-Hodgkin lymphoma samples ([1]; positive/measured samples): 5/21
